Results deposited as PubChem BioAssay AID686943 (Drosophila RNAi Screening Center, 2013)
In all, the deposit lists about 23,000 reagents; this is an unselected part of those that have a named target and a result. 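Extra replicates exist only for a retested subset of genes; insulin dose and duration not given; both raised and lowered dpERK matter.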 Reagents against one gene are numbered here. A plus sign joins genes that one reagent is predicted to hit. No sequences are given here. The record does not give: the amount of reagent, the time to read-out.

Test: 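Search across the genome for regulators of signalling from receptor tyrosine kinase to ERK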 (primary screen)
Cell system: Drosophila S2R+ haemocyte-like cells expressing YFP-tagged ERK (Rolled)
Reagent: long dsRNA against Drosophila genes
Conditions: insulin stimulation versus unstimulated cells; dose and duration not given
Read-out: 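Antibody staining for doubly phosphorylated ERK divided by ERK-YFP signal, as plate z-scores, in insulin-treated and untreated cells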
Scale: replicate 1, z-score of dpERK with insulin and replicate 2, z-score of dpERK with insulin: higher = more active ERK per ERK-YFP after insulin; replicate 1, z-score of dpERK under basal conditions: higher = more basal active ERK per ERK-YFP; replicate 1, z-score of ERK-YFP with insulin: higher = more YFP-tagged ERK signal

The opening 2 records as a preview:
| predicted target | reagent no. | replicate 1, z-score of dpERK with insulin | replicate 2, z-score of dpERK with insulin | replicate 1, z-score of dpERK under basal conditions | replicate 1, z-score of ERK-YFP with insulin |
| --- | --- | --- | --- | --- | --- |
| Mitf | 1 | 0.32 | 0.23 | 0.74 | 0.53 |
| Mitf | 2 | -0.96 | 0.19 | 0.35 | 0.39 |

Main list, repeating the preview:
| predicted target | reagent no. | replicate 1, z-score of dpERK with insulin | replicate 2, z-score of dpERK with insulin | replicate 1, z-score of dpERK under basal conditions | replicate 1, z-score of ERK-YFP with insulin |
| --- | --- | --- | --- | --- | --- |
| Mitf | 1 | 0.32 | 0.23 | 0.74 | 0.53 |
| Mitf | 2 | -0.96 | 0.19 | 0.35 | 0.39 |
| eIF3g1 (eukaryotic translation initiation factor 3 subunit g1) | 1 | -1.63 | -0.6 | 6.76 | -1.11 |
| Nepl17 (Neprilysin-like 17) | 1 | -0.07 | -0.05 | 0.38 | 0.16 |
| Abca3 (ATP binding cassette subfamily A member 3) | 1 | 0.56 | 0.07 | 0.53 | 1.14 |
| Gr57a (Gustatory receptor 57a) | 1 | 0.39 | 0.76 | -0.25 | 0.07 |
| Synj (Synaptojanin) | 1 | 0.28 | -0.02 | 0.61 | -0.35 |
| Jon66Ci (Jonah 66Ci) | 1 | -0.56 | -0.35 | 1.26 | 0.14 |
| CG10137 | 1 | 0.33 | 1 | 0.06 | -2.56 |
| CG10137 | 2 | 0.68 | 0.23 | -0.4 | 0.17 |
| CG4653 | 1 | 1.2 | 2.04 | 0.66 | 0.22 |
| CG4653 | 2 | -3.51 | -1.93 | -0.32 | -0.76 |
| Clp (Clipper) | 1 | 2.13 | 3.32 | 0.69 | -1.57 |
| Hmt4-20 (Histone methyltransferase 4-20) | 1 | -1.29 | -0.94 | -0.45 | 0.43 |
| Ilp7 (Insulin-like peptide 7) | 1 | 0.35 | 0.4 | -0.19 | 0.77 |
| IFT54 (Intraflagellar transport 54) | 1 | 0.71 | -1.65 | -0.49 | 0.23 |
| Ack (Activated Cdc42 kinase) | 1 | -0.71 | -1.88 | -0.28 | 0.22 |
| CG11106 | 1 | -0.05 | -0.09 | 0.89 | 0.04 |
| CG12054 | 1 | -0.8 | -3.21 | 0.96 | -0.09 |
| CG2006 + Spase12 | 1 | -0.37 | 0 | -0.34 | 0.01 |
| CG33124 | 1 | 1.17 | 0.53 | 0.67 | -0.33 |
| Edem2 (ER degradation enhancer, mannosidase alpha-like 2) | 1 | 0.19 | 0.38 | 1.23 | 0.68 |
| Drak (Death-associated protein kinase related) | 1 | 0.15 | 1.15 | -0.2 | 0.33 |
